# Test results as given in article PMC5996148.
# Values joined by “and” are separate entries in the source; they are usually repeats but may differ in a detail not shown here. Equal entries are not always repeated. The list shows a part of the results.
# Assays:
# Test in all cases: protein microarray (ProtoArray v5.0), streptavidin-Alexa Fluor 647
# Details in all cases: 3'-biotin; 20 mM Tris (pH 7.5), 5 mM MgCl2, 100 mM KCl, 0.1% Tween-20, A/T-rich and random oligonucleotide blockers; temperature not stated; high values mean tight binding
# Protein 71-7A (human) = system: Protein 71-7A (human)
# Protein BEAN (human) = system: Protein BEAN (human)
# Protein BEX5 (human) = system: Protein BEX5 (human)
# Protein DGCR6L (human) = system: Protein DGCR6L (human)
# Protein Dr1 (human) = system: Protein Dr1 (human)
# Protein FAM46B (human) = system: Protein FAM46B (human)
# Protein FAM63B (human) = system: Protein FAM63B (human)
# Protein FAM76B (human) = system: Protein FAM76B (human)
# Protein NOXP20 (human) = system: Protein NOXP20 (human)
# Protein Niban (human) = system: Protein Niban (human)
# Protein OSCP1 (human) = system: Protein OSCP1 (human)
# Protein PPRC1 (human) = system: Protein PPRC1 (human)
# [1] = system: Protein phosphatase Slingshot homolog 3 (human)
# Protein shisa-4 (human) = system: Protein shisa-4 (human)
# [2] = system: Protein transport protein Sec61 subunit alpha isoform 1 (human)
# [3] = system: Protein transport protein Sec61 subunit beta (human)
# [4] = system: Protein tyrosine kinase 2 beta (human)
# [5] = system: Protein tyrosine phosphatase receptor type C-associated protein (human)
# [6] = system: Purine nucleoside phosphorylase (human)
# [7] = system: Putative ATP-dependent Clp protease proteolytic subunit, mitochondrial (human)
sequence,measurement,setting,value
GGTGACAGGGGTATGGGGAGGGG [G4-2 biotinylated (Ct1)],binding signal,Protein 71-7A (human),-0.37 z-score
same,binding signal,Protein BEAN (human),-0.398 z-score
same,binding signal,Protein BEX5 (human),-0.398 z-score
same,binding signal,Protein DGCR6L (human),-0.392 z-score
same,binding signal,Protein Dr1 (human),-0.398 z-score
same,binding signal,Protein FAM46B (human),-0.372 z-score
same,binding signal,Protein FAM63B (human),-0.402 z-score
same,binding signal,Protein FAM76B (human),4.14 z-score
same,binding signal,Protein NOXP20 (human),-0.389 z-score
same,binding signal,Protein Niban (human),-0.381 z-score
same,binding signal,Protein OSCP1 (human),-0.382 z-score
same,binding signal,Protein PPRC1 (human),-0.393 z-score and -0.41 z-score
same,binding signal,[1],-0.376 z-score and -0.381 z-score
same,binding signal,Protein shisa-4 (human),-0.373 z-score
same,binding signal,[2],-0.359 z-score
same,binding signal,[3],6.31 z-score
same,binding signal,[4],-0.373 z-score
same,binding signal,[5],-0.399 z-score
same,binding signal,[6],-0.379 z-score
same,binding signal,[7],-0.38 z-score

# Part of the list above, with tabs.
sequence	measurement	setting	value
GGTGACAGGGGTATGGGGAGGGG [G4-2 biotinylated (Ct1)]	binding signal	[5]	-0.399 z-score
same	binding signal	[6]	-0.379 z-score
